Reference: PubChem BioAssay AID540275 (National Center for Advancing Translational Sciences (NCATS), 2011)
In all, about 320,000 compounds went through this assay and about 620 (0.19%) were called active. The inconclusive results got no clear call from the source; some entries with a clear call stand among them for comparison. No stated cut-off is given here; in the data, active means activation above about 80%; inconclusive means between about 30% and that limit; inactive means weaker than that.

The chains behind the UniProt entries cited, without tags or fusion partners.
UniProt Q8NER1, whole entry, looked up: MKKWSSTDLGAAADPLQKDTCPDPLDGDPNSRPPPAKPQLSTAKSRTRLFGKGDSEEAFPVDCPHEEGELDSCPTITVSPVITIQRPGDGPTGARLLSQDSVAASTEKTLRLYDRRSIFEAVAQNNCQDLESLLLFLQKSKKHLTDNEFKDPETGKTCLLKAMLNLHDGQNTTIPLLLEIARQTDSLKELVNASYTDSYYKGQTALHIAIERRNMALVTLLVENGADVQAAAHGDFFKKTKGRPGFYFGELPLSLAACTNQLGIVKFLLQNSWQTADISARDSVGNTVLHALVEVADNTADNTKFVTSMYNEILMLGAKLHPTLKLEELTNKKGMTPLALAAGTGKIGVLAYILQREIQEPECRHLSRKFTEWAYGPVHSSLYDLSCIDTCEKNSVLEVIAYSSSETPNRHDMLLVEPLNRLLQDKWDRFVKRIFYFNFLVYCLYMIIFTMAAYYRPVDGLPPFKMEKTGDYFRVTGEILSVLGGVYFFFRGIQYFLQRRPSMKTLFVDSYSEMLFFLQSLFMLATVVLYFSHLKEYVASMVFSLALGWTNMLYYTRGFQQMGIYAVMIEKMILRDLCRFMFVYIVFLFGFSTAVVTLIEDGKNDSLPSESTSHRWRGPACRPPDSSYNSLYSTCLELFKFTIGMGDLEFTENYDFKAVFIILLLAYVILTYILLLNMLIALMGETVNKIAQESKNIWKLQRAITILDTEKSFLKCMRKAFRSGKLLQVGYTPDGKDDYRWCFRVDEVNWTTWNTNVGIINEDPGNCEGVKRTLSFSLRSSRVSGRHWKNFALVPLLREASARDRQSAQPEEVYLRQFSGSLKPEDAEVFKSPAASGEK

Molecular target: Transient receptor potential cation channel subfamily V member 1 (Homo sapiens) (UniProt Q8NER1)
Test: HTS Assay for Compounds that Act as Agonists of the Vanilloid Receptor 1; further: 0% is about no effect
Conditions: TRPV1-expressing cells, Fluo-8 calcium influx, agonist mode; at 8.33 µM, hits give high values
Procedure, shortened: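 Fluo-8 calcium influx in TRPV1-expressing cells, kinetic read (ex 480/em 520 nm). Compound added and read 3 min for agonist activity, followed by capsaicin at EC20 final and 2 min further read for enhancement.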

SMILES | activation
Cc1cc(C)c2[nH]c(C(=O)Nc3ccc4c(c3)OCO4)cc2c1 | inconclusive: 46.7%
Cc1ccc(S(=O)(=O)N(C)CC(=O)Oc2ccc(-c3nnco3)cc2)cc1 | inactive: 3.5%
COCCNc1nc(CSc2ccccc2)nc2sc(C)c(C)c12 | inconclusive: 49.6%
Oc1ccc(Nc2nc(-c3ccc(Cl)cc3)nc3ccccc23)cc1 | inconclusive: 33.7%
CC1CCCC(NC(=O)CNCc2ccccc2F)C1C (stereo not drawn) | inconclusive: 31.9%
CNc1nc2c(C)cccn2c(=O)c1C=NCc1ccccc1 | inactive: 2.11%
COc1ccc2oc(C(=O)NCC3CCCO3)c(C)c2c1 (stereo not drawn) | inconclusive: 62.5%
CCOc1nc(NCCC2=CCCCC2)nc(N2CCOCC2)n1 | inconclusive: 64.1%
CC(C)n1nc(C(=O)OCC(=O)c2c[nH]c3ccccc23)c2ccccc2c1=O | inconclusive: 33.5%
Cc1ccc2nc(Nc3nc(C)cc(C(F)(F)F)n3)nc(C)c2c1 | inactive: -0.0924%
Cc1ccc(N/N=C(\C#N)C(=N)N2CCCCC2)cc1 | inconclusive: 66.7%
CN1C(=O)/C(=C\c2ccncc2)SC1=Nc1ccccc1 | inconclusive: 30.1%
O=C(Nc1ccc2c(c1)C(=O)NC2=O)c1cc(Cl)ccc1Cl | inconclusive: 48.4%
CC1CCCN(c2nc(N(C)c3ccccc3)nc(N)c2[N+](=O)[O-])C1 (stereo not drawn) | inconclusive: 30.2%
CCCCNC(=S)Nc1cccc(C(C)=O)c1 | inconclusive: 63.2%
Cc1ccc(NC(=O)c2cc(-c3ccccc3)nn2-c2ccccc2)cc1 | inconclusive: 46.3%
CCc1ccc(NC(=O)CNCc2ccc(OC)c(OC)c2)cc1 | active: 85%
COc1cc2c(-c3ccc4cc[nH]c4c3)c(-c3ccsc3)oc(=O)c2cc1OC | inconclusive: 35.9%
Cc1ccc(CCNC(=O)CCc2nc3ccccc3[nH]2)cc1 | inconclusive: 41.6%
Cc1ccc(NC(=O)CSc2nnc(CNC(=O)c3ccco3)n2C)cc1 | inconclusive: 62.2%

SMILES | activation
O=C1C=C(c2ccccc2)C[C@@H](c2ccc3c(c2)OCO3)C1 | inconclusive: 40.6%
C/C(=N\NC(=O)C1CCCC1)c1ccc(C(C)C)cc1 | inconclusive: 32.9%
Cc1ccc(C(=O)Nc2ccccc2C(=O)N2CC3(C)CC2CC(C)(C)C3)cc1 (stereo not drawn) | inconclusive: 61.1%
CCCCCC(=O)Nc1cc(S(=O)(=O)N2CCCCC2)ccc1N1CCOCC1 | inconclusive: 34.4%
CC(Cc1cccs1)NC(=O)Nc1ccc(Cl)cc1 (stereo not drawn) | inconclusive: 54.1%
Cc1ccc(S(=O)(=O)N2CCC(=O)N(C(COCc3cccc(Cl)c3)C(C)C)CC2)cc1 (stereo not drawn) | inconclusive: 33.5%
COc1ccc(NC(=O)c2ccc3c(c2)NC(=O)CS3)cc1 | inconclusive: 53.8%
COc1cccc(CC(=O)Nc2nc(-c3cc(OC)ccc3OC)cs2)c1 | inconclusive: 35.6%
O=C(Nc1cnc2sc3c(n2c1=O)CCCC3)c1ccc(F)cc1 | inconclusive: 31%
COc1ccc(NC(=O)c2csc(Cc3ccccc3)n2)cc1 | inconclusive: 69.4%
CCOC(=O)Cn1nc(-c2ccc(F)cc2)cc(Cc2ccccc2)c1=O | inconclusive: 52.8%
CCn1cc(CN2CCC(C(=O)Nc3cccc(-c4cccc(F)c4)c3)CC2)cn1 | inactive: 1.46%
Cc1cccc2cc(C#N)c(SCC(=O)NCc3cccs3)nc12 | inactive: -4.82%
Cc1ccc(OCCCC(=O)Nc2ccc(Br)cc2)cc1 | inconclusive: 54.3%
CCC(C)NC(=O)c1ccc(CSCc2ccccc2Cl)o1 (stereo not drawn) | inconclusive: 50.9%
O=C(Nc1ccc(N2CCOCC2)c(Cl)c1)c1ccc(F)cc1 | inconclusive: 75.5%
CCn1c(-c2cc(-c3ccc(C)cc3)nc3ccccc23)n[nH]c1=S | inconclusive: 44.8%
Cc1ccc2cc3cc(C(=O)NC4CCCCC4)oc3nc2c1 | inconclusive: 51.2%
COc1ccc(NC(=S)Nc2ccc3cn[nH]c3c2)cc1 | inconclusive: 48%
CN1C(=O)c2ccccc2Sc2ccc(NC(=O)N3CCOCC3)cc21 | inconclusive: 62.7%

SMILES | activation
Cc1ccc(CSCCNC(=O)c2ccccc2)cc1 | inconclusive: 51.5%
COc1cccc(C(=O)N2CCCC(Nc3ccc(C)c(C)c3)C2)c1 (stereo not drawn) | inconclusive: 54.4%
CC(C)c1ccc(NC(=O)CCc2ccccc2)cc1 | inconclusive: 76.4%
COc1cccc(CN2CCN(C(=O)c3ccc(-c4ccccc4)cc3)CC2)c1 | inconclusive: 33.5%
COc1cccc(NC(=O)CN(C)C(=O)c2ccc3c(c2)C(=O)N(CCC(C)C)C3=O)c1 | inconclusive: 31.7%
Cc1ccc(SCCC(=O)OCC(=O)NCC2CCCCC2)cc1 | inconclusive: 30.5%
Cn1c(CNC(=O)c2ccc(F)cc2)cc2ccccc21 | inconclusive: 48%
Cc1ccc(C)c(S(=O)(=O)/N=C2\C=C(NS(=O)(=O)c3ccccc3)C(=O)c3ccccc32)c1 | inactive: -2.89%
O=C(NC1CCCN(Cc2ccc(Cl)cc2)C1)c1ccnc(Cl)c1 (stereo not drawn) | inconclusive: 36.6%
CCC(C)NC(=O)c1c(N)n(/N=C/c2ccccn2)c2nc3ccccc3nc12 (stereo not drawn) | inconclusive: 30.6%
S=c1[nH]nc(-c2cccs2)n1/N=C/c1cn(-c2ccccc2)nc1-c1ccccc1 | inactive: -2.37%
CC(NC(=O)c1ccc2ccccc2n1)c1ccc(Br)cc1 (stereo not drawn) | inconclusive: 42.4%
COc1cc(/C=C2/NC(=O)N(Cc3ccccc3F)C2=O)ccc1O | inconclusive: 43.8%
Cc1cc(S(=O)(=O)c2cc3ccc(O)c(C)c3oc2=O)ccc1F | inconclusive: 51.4%
CC(NC(=O)COC(=O)c1cc(NS(=O)(=O)c2ccc(Cl)c([N+](=O)[O-])c2)ccc1O)C1CC2CCC1C2 (stereo not drawn) | inactive: -0.7%
Cc1ccc(S(=O)(=O)N2CCN(C(=O)CCc3c[nH]c4ccccc34)CC2)c(C)c1 | inactive: 3.52%
Cc1cc(C)c2c(n1)nn1c(C)c(CCC(=O)NCc3ccco3)c(C)nc21 | inactive: 11.3%
CCC(=O)N1CCc2nc(-c3ccccc3)sc2C1 | inconclusive: 56.6%

Individual results from the results shown.
Value of CCOc1nc(NCCC2=CCCCC2)nc(N2CCOCC2)n1 under activation: inconclusive: 64.1%
Value of COc1ccc(NC(=O)c2csc(Cc3ccccc3)n2)cc1 under activation: inconclusive: 69.4%
